{
  "sequences": {"note": "Protein sequences, listed by entry. Tags and fused reporters are not part of them. Lines headed by an entry give the natural chain unless they say otherwise; changes in a name come on top.", "UniProt O75534": "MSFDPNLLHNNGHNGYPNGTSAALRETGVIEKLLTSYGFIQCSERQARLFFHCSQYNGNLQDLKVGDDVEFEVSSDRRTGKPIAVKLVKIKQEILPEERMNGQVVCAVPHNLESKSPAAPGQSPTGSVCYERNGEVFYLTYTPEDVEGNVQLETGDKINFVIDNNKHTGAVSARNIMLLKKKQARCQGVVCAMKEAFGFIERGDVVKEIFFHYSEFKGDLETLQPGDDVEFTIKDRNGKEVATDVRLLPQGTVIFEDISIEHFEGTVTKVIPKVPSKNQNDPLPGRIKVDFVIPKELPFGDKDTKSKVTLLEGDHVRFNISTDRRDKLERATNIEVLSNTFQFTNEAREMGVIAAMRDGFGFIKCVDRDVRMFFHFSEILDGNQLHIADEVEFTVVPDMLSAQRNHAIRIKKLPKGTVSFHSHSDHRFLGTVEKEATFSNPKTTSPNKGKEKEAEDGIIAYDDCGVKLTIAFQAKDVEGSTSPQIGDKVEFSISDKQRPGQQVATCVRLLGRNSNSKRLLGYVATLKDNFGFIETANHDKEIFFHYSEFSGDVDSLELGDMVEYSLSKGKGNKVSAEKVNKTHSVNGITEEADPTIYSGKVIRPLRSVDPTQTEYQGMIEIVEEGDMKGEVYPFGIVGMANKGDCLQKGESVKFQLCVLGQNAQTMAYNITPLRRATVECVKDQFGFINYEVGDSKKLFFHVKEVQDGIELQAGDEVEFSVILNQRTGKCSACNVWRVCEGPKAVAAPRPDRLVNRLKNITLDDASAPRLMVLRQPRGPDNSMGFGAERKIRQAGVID", "UniProt Q96HD1": "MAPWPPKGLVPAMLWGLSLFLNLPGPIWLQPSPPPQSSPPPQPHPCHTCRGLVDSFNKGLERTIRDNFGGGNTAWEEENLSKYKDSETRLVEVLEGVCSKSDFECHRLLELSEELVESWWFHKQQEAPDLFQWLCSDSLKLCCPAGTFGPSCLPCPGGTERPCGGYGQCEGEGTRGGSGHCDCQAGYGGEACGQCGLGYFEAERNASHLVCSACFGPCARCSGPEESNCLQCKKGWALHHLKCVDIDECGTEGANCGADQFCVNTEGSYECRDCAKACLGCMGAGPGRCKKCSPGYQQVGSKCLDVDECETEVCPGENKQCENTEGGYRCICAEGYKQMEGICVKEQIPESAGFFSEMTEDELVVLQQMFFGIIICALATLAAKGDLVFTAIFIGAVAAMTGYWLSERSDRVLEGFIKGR", "UniProt P55060": "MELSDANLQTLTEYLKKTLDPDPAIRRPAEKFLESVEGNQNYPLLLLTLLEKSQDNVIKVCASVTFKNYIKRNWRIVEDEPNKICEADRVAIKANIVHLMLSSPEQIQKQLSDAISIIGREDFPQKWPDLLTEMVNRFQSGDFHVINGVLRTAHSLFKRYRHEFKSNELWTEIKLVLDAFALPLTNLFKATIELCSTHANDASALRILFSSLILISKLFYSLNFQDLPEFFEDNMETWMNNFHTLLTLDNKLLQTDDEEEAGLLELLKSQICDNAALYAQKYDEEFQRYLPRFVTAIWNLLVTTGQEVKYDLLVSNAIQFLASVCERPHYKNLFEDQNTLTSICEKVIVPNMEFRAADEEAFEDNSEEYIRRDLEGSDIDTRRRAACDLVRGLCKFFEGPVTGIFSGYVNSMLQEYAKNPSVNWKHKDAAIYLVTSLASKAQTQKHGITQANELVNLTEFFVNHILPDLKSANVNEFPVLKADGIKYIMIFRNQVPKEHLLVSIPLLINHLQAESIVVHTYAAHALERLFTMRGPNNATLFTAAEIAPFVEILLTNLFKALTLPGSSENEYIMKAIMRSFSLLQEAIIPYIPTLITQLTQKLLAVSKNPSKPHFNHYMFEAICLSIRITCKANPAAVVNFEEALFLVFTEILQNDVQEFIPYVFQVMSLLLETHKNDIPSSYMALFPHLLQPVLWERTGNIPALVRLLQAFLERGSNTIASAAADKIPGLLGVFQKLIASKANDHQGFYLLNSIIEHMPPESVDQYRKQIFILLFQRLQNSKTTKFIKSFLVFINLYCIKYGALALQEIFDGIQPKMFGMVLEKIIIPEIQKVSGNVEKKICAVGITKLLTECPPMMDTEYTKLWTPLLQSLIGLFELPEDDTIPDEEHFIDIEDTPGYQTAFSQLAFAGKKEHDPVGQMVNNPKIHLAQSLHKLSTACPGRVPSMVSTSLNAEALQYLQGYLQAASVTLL", "UniProt P49711": "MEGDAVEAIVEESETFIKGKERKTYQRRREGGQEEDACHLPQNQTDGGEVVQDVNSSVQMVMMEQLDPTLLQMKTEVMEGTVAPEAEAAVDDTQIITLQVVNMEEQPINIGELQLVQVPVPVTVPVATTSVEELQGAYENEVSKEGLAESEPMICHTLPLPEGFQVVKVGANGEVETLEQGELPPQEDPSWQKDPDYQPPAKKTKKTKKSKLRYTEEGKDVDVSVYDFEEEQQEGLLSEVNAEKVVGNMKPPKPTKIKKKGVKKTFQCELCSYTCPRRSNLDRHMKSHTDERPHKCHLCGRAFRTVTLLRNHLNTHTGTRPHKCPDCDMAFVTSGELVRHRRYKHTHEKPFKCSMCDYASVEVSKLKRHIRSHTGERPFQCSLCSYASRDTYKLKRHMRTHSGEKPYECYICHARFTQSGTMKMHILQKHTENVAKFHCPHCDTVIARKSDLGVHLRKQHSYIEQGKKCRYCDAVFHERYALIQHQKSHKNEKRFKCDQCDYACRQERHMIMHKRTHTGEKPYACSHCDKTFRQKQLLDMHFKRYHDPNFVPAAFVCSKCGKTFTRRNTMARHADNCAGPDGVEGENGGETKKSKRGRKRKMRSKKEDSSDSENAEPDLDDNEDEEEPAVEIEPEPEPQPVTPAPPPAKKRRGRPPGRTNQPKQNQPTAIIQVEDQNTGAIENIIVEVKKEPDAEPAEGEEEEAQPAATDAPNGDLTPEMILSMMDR", "UniProt Q9UKG9": "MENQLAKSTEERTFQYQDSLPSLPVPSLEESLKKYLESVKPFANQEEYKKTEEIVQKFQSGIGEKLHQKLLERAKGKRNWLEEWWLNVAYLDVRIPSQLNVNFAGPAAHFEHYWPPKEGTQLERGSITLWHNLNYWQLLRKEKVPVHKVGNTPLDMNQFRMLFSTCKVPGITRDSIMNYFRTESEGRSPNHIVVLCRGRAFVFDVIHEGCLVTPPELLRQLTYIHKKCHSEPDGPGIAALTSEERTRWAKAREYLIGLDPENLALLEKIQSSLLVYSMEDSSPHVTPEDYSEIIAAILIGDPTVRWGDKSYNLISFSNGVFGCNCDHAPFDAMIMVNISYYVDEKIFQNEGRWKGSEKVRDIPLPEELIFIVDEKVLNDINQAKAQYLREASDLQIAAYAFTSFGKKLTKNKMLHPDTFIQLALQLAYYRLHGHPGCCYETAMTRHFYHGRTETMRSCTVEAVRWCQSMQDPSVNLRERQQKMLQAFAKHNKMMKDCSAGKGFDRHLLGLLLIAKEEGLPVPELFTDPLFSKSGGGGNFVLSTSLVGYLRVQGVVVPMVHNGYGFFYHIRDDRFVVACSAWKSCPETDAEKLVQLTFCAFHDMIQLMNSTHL", "UniProt O43310": "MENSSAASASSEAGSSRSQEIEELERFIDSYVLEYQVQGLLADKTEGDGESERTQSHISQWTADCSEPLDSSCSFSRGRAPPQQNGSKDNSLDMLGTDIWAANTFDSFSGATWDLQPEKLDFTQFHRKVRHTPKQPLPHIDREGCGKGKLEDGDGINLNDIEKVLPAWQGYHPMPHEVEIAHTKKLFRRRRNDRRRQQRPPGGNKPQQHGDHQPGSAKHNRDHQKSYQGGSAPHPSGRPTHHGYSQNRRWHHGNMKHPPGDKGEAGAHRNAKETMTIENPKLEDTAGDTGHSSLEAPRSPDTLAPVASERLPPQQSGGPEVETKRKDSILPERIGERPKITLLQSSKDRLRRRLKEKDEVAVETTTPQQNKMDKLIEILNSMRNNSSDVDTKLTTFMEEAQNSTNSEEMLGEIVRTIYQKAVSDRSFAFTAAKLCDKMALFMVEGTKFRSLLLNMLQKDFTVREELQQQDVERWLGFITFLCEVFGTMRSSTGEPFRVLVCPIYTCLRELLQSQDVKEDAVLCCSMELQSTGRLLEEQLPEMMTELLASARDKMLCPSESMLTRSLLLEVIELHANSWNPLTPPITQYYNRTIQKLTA", "UniProt P41240": "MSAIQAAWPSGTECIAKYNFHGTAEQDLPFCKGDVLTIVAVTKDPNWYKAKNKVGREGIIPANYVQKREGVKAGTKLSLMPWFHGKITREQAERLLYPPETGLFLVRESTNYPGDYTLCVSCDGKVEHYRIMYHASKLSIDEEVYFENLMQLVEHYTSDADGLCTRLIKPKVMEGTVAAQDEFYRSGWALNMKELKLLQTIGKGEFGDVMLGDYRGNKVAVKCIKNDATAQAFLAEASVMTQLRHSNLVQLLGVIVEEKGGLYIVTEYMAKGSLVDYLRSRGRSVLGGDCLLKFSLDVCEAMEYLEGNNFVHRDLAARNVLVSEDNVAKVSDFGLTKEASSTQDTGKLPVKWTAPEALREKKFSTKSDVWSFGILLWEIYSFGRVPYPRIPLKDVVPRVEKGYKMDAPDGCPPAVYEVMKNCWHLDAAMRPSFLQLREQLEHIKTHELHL", "UniProt Q2NKJ3": "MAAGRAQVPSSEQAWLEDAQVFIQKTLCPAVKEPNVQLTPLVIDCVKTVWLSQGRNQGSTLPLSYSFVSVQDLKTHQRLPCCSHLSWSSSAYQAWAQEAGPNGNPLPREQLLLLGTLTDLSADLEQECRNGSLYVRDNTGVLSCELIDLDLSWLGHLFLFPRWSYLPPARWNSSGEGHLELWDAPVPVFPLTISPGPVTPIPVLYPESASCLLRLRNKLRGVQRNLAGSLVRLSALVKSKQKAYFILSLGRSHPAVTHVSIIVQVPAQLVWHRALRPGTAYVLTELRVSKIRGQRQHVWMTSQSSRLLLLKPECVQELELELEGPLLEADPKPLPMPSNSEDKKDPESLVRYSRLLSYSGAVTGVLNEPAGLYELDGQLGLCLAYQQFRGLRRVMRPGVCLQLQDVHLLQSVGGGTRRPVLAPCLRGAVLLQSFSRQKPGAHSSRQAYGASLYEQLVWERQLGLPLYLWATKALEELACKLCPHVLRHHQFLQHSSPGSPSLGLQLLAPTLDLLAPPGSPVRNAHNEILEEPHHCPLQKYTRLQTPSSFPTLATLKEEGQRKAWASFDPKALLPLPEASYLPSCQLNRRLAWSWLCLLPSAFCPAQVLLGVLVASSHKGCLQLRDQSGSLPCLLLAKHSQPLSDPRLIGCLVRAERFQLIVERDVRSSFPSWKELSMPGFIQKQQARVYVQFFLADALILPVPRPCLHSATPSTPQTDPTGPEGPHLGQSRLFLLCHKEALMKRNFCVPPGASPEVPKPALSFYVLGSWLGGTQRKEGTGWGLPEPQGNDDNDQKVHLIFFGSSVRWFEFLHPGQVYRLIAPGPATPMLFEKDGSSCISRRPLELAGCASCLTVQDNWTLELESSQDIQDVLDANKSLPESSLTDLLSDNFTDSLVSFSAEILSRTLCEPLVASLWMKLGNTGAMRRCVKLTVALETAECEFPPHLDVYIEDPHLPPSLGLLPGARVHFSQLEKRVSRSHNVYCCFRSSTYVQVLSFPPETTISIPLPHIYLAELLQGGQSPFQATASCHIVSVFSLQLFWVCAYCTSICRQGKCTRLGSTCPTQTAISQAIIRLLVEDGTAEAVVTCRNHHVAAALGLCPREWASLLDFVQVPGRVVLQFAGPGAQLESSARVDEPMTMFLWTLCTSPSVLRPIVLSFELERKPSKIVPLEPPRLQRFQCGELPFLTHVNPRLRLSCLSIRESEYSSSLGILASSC", "UniProt P21291": "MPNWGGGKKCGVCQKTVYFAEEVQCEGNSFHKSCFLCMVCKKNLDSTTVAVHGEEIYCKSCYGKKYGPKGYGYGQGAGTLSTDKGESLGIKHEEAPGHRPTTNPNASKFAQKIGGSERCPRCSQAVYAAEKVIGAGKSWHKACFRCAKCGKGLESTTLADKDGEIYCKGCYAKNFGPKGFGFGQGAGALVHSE", "UniProt O75718": "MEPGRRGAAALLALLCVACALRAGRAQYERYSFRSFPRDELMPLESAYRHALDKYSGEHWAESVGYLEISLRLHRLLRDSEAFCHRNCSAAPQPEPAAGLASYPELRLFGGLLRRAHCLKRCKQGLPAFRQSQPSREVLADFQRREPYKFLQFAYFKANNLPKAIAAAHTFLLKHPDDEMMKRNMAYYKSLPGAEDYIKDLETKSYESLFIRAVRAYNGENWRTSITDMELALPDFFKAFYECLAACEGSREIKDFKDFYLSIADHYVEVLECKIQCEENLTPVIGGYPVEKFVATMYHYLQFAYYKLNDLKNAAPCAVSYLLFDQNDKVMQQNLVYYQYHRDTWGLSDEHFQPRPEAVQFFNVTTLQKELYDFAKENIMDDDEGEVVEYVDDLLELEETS"},
  "source": "the supplement of paper PMC12067093",
  "about": "“Discovery and optimisation of a covalent ligand for TRIM25 and its application to targeted protein ubiquitination” (Chemical Science, 2025)",
  "note": "The other results are listed elsewhere or left out.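 Further: competitive chemoproteomic profiling in live THP-1 cells with an iodoacetamide desthiobiotin (IA-DTB) probe, comparing probe-labelled peptide intensities in compound-treated cells against DMSO-treated controls.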",
  "data": [
    {"compound": "CC1Cc2ccccc2N1C(=O)C1CCCN(C1)C(=O)CCl (mixture of isomers) [TRIM25 ligand 11 (diastereomer mixture)]", "experiment": "probe-labelled cysteine peptide fold change vs DMSO (competition) (log2 fold change); higher = less target engagement (more negative = stronger competition)", "settings": "50 µM; THP-1; incubation time: 4 h", "values": [
      {"target": "CSDE1_O75534_645_GDCLQK (UniProt O75534)", "probe-labelled cysteine peptide fold change": 0.0924},
      {"target": "CRYBG1_Q9Y4K1_1404_ISSVQPICLDSFTGPR (UniProt Q9Y4K1)", "probe-labelled cysteine peptide fold change": -0.0158},
      {"target": "CRELD1_Q96HD1_229_CSGPEESNCLQCK (UniProt Q96HD1)", "probe-labelled cysteine peptide fold change": -0.197},
      {"target": "CPSF2_Q9P2I0_34_FLLDCGWDEHFSMDIIDSLRK (UniProt Q9P2I0)", "probe-labelled cysteine peptide fold change": 0.0034},
      {"target": "CORO1C_Q9ULV4_23_NDQCYDDIR (UniProt Q9ULV4)", "probe-labelled cysteine peptide fold change": -0.0243},
      {"target": "CORO1A_P31146_285_HLEEPLSLQELDTSSGVLLPFFDPDTNIVYLCGK (UniProt P31146)", "probe-labelled cysteine peptide fold change": 0.03},
      {"target": "CORO1B_Q9BR76_25_NDQCYEDIR (UniProt Q9BR76)", "probe-labelled cysteine peptide fold change": -0.0524},
      {"target": "CSE1L_P55060_939_LSTACPGR (UniProt P55060)", "probe-labelled cysteine peptide fold change": 0.108},
      {"target": "CTCF_P49711_299_CHLCGR (UniProt P49711)", "probe-labelled cysteine peptide fold change": 0.0588},
      {"target": "CROT_Q9UKG9_584_SCPETDAEK (UniProt Q9UKG9)", "probe-labelled cysteine peptide fold change": 0.196},
      {"target": "CRYBG1_Q9Y4K1_594+609_EVQLPTCHSNEPEVVSVASCAPPQEEVLGNEHSHCTAELAAK (UniProt Q9Y4K1)", "probe-labelled cysteine peptide fold change": -0.248},
      {"target": "CTIF_O43310_556_MLCPSESMLTR (UniProt O43310)", "probe-labelled cysteine peptide fold change": -0.0936},
      {"target": "CSK_P41240_290_SVLGGDCLLK (UniProt P41240)", "probe-labelled cysteine peptide fold change": -0.0513},
      {"target": "CTC1_Q2NKJ3_535_NAHNEILEEPHHCPLQK (UniProt Q2NKJ3)", "probe-labelled cysteine peptide fold change": -0.0125},
      {"target": "CRLF3_Q8IUI8_336_DSIGVCAEK (UniProt Q8IUI8)", "probe-labelled cysteine peptide fold change": -0.00931},
      {"target": "CRELD1_Q96HD1_135_QQEAPDLFQWLCSDSLK (UniProt Q96HD1)", "probe-labelled cysteine peptide fold change": 0.167},
      {"target": "CSDE1_O75534_106_MNGQVVCAVPHNLESK (UniProt O75534)", "probe-labelled cysteine peptide fold change": -0.139},
      {"target": "CORO1A_P31146_195_DGGLICTSCR (UniProt P31146)", "probe-labelled cysteine peptide fold change": 0.0661},
      {"target": "CSRP1_P21291_58_NLDSTTVAVHGEEIYCK (UniProt P21291)", "probe-labelled cysteine peptide fold change": 0.0779},
      {"target": "CRTAP_O75718_247_AFYECLAACEGSR (UniProt O75718)", "probe-labelled cysteine peptide fold change": 0.486},
      {"target": "CSK_P41240_122_ESTNYPGDYTLCVSCDGK (UniProt P41240)", "probe-labelled cysteine peptide fold change": 0.118},
      {"target": "CRYZL1_O95825_274_HDIITLLGVGGHWVTTEENLQLDPPDSHCLFLK (UniProt O95825)", "probe-labelled cysteine peptide fold change": 0.0471},
      {"target": "CPD_O75976_195_EGDCGFGDGGPSGASGR (UniProt O75976)", "probe-labelled cysteine peptide fold change": 0.183}
    ]}
  ]
}
